According to patent US6933284:
These are yes or no findings as the source states them, for the method shown. Some results given as binding are weak or reduced against the parent protein; the word gives no strength.

By UniProt entry, the sequences of proteins in these tests, tags left out. Where a name states a change or a piece, a line headed by the entry shows the natural chain unless it says otherwise. Residues count along the entry.
UniProt P04114, residues 28-4563: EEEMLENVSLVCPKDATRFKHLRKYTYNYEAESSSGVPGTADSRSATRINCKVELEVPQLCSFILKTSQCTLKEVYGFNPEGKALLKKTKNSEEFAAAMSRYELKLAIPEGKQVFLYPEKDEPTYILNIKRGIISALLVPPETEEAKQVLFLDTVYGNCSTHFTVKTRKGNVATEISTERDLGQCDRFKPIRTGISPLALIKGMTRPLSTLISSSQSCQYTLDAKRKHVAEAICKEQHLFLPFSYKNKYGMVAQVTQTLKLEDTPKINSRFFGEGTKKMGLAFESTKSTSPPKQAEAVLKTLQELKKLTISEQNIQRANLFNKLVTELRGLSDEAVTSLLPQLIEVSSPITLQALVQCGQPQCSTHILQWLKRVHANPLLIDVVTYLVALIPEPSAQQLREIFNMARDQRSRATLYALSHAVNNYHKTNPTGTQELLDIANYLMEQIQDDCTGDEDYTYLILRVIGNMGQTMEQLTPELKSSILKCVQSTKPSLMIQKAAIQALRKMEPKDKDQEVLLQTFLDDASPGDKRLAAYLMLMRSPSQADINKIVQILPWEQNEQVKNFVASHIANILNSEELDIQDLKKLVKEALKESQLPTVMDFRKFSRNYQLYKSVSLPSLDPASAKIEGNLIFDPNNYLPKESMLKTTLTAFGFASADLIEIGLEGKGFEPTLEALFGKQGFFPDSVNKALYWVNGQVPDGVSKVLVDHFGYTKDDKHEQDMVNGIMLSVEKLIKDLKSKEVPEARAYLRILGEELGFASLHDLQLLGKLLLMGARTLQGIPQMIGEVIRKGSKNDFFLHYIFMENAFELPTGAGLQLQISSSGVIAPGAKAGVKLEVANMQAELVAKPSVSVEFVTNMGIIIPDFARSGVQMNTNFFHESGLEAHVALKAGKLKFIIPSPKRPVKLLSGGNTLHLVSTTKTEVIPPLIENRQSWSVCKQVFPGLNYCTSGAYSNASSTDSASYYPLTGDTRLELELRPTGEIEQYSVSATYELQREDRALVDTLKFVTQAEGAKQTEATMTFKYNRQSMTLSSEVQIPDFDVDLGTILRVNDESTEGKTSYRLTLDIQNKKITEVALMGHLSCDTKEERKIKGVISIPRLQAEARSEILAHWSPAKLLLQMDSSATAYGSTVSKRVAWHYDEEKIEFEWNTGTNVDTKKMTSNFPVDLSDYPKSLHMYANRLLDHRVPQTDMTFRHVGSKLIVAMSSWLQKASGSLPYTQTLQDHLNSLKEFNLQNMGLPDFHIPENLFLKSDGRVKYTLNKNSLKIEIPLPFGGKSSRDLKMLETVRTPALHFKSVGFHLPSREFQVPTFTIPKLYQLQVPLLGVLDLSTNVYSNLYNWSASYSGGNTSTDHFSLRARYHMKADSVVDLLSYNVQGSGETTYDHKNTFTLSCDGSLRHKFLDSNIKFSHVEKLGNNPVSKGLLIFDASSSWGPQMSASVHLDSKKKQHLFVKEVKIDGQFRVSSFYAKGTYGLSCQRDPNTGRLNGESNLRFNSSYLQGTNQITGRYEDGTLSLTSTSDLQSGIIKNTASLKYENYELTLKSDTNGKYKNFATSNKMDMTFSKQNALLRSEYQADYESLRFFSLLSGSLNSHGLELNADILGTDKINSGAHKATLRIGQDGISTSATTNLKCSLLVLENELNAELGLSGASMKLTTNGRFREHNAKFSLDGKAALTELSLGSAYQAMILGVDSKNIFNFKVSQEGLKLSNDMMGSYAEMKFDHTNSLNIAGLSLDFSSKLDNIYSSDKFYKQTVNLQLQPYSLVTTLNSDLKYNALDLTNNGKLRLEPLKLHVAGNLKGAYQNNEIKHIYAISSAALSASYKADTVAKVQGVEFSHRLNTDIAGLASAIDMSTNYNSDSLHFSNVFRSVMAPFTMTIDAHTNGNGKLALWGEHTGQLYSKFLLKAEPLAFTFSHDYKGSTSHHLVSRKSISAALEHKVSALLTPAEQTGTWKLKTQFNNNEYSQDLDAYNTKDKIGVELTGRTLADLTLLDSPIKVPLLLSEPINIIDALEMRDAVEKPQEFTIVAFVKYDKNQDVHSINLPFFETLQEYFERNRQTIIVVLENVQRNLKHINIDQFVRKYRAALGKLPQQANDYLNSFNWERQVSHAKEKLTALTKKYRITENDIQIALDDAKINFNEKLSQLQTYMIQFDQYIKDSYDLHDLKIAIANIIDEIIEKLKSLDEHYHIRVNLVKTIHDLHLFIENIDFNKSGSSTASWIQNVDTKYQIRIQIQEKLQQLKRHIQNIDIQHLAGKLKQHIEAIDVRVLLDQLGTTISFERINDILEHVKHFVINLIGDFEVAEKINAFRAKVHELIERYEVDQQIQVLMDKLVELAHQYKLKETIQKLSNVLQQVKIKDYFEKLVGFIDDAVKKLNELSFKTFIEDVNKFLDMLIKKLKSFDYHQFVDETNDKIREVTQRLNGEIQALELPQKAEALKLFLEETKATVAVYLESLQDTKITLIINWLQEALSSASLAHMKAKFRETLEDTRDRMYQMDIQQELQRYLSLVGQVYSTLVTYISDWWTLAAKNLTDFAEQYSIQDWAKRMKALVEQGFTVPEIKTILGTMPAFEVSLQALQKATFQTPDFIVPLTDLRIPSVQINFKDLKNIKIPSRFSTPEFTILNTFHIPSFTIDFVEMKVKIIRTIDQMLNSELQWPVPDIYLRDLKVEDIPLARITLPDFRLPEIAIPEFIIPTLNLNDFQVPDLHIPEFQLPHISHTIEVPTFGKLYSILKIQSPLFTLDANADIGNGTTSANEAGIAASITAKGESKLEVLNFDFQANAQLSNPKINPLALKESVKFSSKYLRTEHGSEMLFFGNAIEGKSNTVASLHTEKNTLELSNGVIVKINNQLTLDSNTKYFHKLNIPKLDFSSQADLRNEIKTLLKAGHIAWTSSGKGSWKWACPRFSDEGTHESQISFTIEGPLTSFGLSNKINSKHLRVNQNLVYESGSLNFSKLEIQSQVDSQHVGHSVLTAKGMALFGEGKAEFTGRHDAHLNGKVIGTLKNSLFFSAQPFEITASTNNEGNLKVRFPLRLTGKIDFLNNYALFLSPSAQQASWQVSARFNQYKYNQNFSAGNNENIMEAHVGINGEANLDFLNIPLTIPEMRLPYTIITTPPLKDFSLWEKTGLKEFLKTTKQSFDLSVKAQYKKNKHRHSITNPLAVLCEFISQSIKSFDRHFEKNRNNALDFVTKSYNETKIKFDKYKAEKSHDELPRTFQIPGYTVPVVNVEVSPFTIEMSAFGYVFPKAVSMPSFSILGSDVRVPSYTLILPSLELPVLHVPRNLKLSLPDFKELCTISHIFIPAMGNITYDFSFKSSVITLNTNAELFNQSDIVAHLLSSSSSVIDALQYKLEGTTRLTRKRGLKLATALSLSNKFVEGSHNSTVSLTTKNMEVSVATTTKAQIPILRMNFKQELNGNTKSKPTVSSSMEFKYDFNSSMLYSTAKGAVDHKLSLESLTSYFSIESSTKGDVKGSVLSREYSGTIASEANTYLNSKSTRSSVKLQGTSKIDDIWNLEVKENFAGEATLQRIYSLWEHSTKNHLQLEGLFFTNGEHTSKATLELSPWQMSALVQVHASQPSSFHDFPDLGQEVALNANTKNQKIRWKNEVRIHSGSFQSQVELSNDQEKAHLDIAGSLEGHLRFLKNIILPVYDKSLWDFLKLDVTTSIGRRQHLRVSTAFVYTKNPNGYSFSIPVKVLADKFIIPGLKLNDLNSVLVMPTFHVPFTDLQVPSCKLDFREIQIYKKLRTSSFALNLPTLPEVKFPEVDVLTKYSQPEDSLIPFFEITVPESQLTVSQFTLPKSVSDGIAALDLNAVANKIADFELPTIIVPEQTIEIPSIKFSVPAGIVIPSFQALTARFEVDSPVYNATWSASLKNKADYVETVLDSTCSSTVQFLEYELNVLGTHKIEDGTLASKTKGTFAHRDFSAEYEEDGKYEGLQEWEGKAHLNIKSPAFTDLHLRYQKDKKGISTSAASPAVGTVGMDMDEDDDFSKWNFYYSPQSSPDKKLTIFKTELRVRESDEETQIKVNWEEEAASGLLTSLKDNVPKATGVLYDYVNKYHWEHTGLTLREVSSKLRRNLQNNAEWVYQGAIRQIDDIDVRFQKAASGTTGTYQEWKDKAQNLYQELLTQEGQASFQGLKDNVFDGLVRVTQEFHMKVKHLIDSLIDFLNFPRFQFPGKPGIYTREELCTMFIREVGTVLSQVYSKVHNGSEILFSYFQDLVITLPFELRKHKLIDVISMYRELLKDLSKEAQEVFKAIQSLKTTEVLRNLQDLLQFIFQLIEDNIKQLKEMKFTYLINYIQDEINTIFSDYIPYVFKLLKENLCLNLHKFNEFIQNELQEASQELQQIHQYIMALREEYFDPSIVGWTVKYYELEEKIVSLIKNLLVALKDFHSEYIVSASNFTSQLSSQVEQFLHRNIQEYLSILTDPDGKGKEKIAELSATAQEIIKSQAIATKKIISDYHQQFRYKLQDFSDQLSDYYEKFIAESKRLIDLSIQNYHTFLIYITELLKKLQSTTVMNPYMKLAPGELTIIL

How the values were obtained:
[1] = molecular target: (35S)versican from cultured human arterial smooth muscle cells (human) (UniProt P13611); assay: gel-mobility shift, three independent experiments
[2] = molecular target: T1, (35S)biglycan from cultured human arterial smooth muscle cells (human) (UniProt P21810); assay: gel-mobility shift, three independent experiments
T1 sequence (glycosaminoglycan chains metabolically labeled with (35S)SO4, looked up): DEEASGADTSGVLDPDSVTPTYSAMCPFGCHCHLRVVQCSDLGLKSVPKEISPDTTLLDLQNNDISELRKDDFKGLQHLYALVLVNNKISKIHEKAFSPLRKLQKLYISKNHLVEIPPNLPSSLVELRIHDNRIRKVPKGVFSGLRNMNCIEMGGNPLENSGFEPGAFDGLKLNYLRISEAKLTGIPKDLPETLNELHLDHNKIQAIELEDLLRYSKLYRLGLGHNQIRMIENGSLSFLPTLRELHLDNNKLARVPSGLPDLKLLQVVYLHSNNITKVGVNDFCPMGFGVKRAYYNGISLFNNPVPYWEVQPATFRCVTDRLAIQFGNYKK

[3] = molecular target: (35S)versican from cultured human arterial smooth muscle cells (human) (UniProt P13611); assay: summary table, proteoglycan binding (biglycan and versican were the proteoglycans tested)
[4] = molecular target: T1, (35S)biglycan from cultured human arterial smooth muscle cells (human); assay: as above
[5] = molecular target: (35S)versican from cultured human arterial smooth muscle cells (human) (UniProt P13611); assay: gel-mobility shift
[6] = molecular target: (35S)versican from cultured human arterial smooth muscle cells (human) (UniProt P13611); assay: gel-mobility shift, data not shown

| Substance | binding [1] | binding [3] | also measured |
| --- | --- | --- | --- |
| K3363E LDL (recombinant LDL, human apo-B100 with glutamic acid for lysine at residue 3363) (from UniProt P04114 28-4563) (ligand) | binds |  |  |
| R3500Q LDL (recombinant LDL, human apo-B100 with glutamine for arginine at residue 3500) (from UniProt P04114 28-4563) (ligand) | binds | binds | binding [2]: binds; binding [4]: binds |
| RK3359-3369SA LDL (recombinant LDL, human apo-B100 with the arginines of Site B changed to serines and the lysines to alanines) (from UniProt P04114 28-4563) (ligand) | binds |  | binding [5]: binds |
| human plasma LDL (from UniProt P04114 28-4563) (ligand) | binds |  |  |
| recombinant control LDL (human apo-B100 with leucine in place of glutamine at position 2153) (from UniProt P04114 28-4563) (ligand) | binds | binds |  |
| recombinant control LDL without the 'Leu-Leu' mutation (LDL generated by the unmodified apo-B100 P1 bacteriophage clone) (from UniProt P04114 28-4563) (ligand) |  |  | binding [6]: binds |
